Data reported in the supplement of paper PMC10849652.
Some of the results follow.

By UniProt entry, the sequences of proteins in these tests, tags left out. Where a name states a change or a piece, a line headed by the entry shows the natural chain unless it says otherwise.
UniProt P27540, whole entry, looked up: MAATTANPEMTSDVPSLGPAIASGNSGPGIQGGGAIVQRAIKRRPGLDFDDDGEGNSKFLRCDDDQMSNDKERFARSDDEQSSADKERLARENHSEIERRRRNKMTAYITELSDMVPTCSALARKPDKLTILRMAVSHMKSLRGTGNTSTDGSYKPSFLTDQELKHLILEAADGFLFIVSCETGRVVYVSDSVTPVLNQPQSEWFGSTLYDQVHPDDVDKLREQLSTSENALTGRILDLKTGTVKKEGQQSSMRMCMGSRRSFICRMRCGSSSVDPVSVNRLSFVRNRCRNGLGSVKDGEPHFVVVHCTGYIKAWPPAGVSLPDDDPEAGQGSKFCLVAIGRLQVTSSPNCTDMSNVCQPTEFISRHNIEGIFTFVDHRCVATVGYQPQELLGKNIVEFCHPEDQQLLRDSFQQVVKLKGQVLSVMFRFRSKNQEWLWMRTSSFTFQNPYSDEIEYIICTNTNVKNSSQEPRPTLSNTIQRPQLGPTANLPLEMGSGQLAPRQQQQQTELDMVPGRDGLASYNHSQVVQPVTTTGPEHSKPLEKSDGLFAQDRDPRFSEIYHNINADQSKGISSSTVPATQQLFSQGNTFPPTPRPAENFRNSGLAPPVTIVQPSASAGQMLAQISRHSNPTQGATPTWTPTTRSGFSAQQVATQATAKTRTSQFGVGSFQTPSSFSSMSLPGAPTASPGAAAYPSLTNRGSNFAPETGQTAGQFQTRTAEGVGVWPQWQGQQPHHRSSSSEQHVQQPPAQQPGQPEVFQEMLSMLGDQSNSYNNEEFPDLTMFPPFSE
UniProt P14415, whole entry, looked up: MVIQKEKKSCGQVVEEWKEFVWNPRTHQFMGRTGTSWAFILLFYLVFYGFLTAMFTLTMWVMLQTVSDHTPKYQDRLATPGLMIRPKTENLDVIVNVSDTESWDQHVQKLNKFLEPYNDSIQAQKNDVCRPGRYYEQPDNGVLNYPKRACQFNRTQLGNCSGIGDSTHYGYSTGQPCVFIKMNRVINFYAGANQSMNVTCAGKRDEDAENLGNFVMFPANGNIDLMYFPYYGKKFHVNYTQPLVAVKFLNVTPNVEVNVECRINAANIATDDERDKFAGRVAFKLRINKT
UniProt O75947: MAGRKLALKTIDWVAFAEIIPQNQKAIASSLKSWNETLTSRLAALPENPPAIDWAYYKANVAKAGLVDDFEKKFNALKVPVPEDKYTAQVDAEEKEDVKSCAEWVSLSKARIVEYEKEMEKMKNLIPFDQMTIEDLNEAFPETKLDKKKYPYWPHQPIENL
UniProt Q96BM9: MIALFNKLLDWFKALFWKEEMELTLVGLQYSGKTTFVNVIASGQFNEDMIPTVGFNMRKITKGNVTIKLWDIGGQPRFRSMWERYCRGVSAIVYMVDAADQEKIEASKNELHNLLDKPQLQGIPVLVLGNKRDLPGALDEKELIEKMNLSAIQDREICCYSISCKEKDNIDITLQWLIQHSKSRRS
UniProt P36542: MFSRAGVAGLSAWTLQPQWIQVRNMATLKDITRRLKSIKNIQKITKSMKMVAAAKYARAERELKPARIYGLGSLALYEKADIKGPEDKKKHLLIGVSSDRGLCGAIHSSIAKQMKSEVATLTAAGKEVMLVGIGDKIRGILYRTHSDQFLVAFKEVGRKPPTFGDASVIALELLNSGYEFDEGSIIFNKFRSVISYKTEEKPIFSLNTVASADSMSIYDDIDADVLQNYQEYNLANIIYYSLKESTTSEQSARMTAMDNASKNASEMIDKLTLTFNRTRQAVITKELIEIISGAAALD
UniProt Q04656: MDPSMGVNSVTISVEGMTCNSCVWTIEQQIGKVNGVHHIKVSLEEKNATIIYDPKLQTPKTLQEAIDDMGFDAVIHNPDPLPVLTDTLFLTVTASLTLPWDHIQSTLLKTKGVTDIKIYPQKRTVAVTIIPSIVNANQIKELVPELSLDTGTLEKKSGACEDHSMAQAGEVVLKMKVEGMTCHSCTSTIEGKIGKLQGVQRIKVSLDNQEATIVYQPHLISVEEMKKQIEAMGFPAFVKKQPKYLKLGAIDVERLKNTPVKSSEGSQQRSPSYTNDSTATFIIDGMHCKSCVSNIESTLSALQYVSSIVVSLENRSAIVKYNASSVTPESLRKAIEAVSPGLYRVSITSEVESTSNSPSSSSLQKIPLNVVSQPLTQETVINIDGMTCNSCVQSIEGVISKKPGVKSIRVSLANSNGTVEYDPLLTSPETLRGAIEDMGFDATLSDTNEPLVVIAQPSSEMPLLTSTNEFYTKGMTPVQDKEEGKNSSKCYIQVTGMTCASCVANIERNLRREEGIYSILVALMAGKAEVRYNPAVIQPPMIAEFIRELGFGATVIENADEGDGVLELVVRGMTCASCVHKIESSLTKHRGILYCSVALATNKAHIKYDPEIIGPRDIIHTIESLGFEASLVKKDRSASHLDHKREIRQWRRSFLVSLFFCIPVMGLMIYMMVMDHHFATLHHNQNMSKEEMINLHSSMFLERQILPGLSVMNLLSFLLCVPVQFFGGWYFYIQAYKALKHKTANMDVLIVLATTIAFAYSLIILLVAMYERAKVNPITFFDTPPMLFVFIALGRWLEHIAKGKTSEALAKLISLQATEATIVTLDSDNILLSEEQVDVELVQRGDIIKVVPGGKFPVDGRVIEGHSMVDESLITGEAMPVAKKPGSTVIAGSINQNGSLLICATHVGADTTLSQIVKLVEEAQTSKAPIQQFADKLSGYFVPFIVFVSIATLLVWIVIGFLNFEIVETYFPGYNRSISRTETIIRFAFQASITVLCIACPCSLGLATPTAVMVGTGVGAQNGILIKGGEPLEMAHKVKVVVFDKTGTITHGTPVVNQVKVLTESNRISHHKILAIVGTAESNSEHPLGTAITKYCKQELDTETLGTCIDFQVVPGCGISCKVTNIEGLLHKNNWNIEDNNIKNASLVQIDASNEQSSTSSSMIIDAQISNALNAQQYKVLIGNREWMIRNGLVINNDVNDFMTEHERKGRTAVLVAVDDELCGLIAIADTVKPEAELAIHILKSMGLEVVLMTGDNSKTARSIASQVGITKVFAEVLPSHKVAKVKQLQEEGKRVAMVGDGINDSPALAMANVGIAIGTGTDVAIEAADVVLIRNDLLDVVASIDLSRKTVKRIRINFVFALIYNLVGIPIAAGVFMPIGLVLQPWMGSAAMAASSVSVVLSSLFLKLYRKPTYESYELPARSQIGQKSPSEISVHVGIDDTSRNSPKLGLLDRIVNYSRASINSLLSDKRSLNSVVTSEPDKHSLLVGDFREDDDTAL
UniProt Q7L266: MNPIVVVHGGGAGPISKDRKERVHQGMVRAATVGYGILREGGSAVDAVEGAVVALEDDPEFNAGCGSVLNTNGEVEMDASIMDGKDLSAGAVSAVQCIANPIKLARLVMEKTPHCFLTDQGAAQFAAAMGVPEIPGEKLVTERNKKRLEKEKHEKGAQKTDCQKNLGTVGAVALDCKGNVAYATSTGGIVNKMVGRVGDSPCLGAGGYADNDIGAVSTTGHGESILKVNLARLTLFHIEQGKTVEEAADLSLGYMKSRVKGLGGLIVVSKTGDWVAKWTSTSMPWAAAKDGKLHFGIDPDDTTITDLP
UniProt P15848: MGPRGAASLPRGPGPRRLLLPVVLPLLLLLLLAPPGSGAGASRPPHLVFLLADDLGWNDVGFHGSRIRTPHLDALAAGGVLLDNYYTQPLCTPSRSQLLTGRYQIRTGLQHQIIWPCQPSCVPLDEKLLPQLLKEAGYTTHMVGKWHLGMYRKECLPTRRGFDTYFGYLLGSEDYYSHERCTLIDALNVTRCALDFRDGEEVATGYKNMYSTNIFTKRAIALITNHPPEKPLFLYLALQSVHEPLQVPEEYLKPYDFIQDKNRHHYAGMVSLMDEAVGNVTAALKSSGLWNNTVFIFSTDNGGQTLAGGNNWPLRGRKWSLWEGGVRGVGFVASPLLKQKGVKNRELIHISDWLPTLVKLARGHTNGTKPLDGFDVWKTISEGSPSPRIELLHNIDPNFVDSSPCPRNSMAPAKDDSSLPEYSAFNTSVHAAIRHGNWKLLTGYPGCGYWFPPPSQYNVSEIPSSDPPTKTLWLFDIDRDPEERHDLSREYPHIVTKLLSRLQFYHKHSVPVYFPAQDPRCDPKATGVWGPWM
UniProt O75348, whole entry, looked up: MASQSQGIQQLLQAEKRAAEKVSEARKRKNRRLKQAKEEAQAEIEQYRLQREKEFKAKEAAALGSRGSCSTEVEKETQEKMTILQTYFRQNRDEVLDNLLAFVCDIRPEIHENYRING
UniProt P56378: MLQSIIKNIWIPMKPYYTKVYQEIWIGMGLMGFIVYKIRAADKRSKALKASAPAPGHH
UniProt P36404: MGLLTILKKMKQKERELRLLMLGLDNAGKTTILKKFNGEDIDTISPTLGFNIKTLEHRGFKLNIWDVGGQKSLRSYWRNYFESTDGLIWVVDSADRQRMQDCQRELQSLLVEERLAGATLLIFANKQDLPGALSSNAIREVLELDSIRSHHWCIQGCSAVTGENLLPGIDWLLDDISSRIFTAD
UniProt Q9H2C2: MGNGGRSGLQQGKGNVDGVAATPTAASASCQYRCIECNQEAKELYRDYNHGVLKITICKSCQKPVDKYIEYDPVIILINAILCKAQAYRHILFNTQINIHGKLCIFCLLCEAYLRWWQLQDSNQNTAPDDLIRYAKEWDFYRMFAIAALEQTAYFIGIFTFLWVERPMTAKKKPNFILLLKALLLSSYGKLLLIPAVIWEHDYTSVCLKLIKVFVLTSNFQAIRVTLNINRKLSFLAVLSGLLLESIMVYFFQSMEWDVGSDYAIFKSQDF
UniProt Q5T9A4: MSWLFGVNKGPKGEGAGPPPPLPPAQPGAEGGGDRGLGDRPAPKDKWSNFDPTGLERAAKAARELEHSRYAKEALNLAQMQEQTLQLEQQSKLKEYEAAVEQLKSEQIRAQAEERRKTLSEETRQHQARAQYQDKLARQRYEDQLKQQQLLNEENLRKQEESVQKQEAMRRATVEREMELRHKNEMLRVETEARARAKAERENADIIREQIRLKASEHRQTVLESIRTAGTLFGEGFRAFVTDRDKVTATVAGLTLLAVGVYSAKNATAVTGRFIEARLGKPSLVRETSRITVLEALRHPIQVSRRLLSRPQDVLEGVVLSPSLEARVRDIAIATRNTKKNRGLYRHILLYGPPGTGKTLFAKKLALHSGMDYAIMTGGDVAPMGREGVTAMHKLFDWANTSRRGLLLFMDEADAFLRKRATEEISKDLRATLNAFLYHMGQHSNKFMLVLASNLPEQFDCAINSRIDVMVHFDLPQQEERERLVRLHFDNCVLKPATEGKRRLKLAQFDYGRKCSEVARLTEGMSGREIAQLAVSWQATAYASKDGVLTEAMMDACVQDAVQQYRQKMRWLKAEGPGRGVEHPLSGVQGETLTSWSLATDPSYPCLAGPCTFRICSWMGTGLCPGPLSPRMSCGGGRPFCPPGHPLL
UniProt Q01814: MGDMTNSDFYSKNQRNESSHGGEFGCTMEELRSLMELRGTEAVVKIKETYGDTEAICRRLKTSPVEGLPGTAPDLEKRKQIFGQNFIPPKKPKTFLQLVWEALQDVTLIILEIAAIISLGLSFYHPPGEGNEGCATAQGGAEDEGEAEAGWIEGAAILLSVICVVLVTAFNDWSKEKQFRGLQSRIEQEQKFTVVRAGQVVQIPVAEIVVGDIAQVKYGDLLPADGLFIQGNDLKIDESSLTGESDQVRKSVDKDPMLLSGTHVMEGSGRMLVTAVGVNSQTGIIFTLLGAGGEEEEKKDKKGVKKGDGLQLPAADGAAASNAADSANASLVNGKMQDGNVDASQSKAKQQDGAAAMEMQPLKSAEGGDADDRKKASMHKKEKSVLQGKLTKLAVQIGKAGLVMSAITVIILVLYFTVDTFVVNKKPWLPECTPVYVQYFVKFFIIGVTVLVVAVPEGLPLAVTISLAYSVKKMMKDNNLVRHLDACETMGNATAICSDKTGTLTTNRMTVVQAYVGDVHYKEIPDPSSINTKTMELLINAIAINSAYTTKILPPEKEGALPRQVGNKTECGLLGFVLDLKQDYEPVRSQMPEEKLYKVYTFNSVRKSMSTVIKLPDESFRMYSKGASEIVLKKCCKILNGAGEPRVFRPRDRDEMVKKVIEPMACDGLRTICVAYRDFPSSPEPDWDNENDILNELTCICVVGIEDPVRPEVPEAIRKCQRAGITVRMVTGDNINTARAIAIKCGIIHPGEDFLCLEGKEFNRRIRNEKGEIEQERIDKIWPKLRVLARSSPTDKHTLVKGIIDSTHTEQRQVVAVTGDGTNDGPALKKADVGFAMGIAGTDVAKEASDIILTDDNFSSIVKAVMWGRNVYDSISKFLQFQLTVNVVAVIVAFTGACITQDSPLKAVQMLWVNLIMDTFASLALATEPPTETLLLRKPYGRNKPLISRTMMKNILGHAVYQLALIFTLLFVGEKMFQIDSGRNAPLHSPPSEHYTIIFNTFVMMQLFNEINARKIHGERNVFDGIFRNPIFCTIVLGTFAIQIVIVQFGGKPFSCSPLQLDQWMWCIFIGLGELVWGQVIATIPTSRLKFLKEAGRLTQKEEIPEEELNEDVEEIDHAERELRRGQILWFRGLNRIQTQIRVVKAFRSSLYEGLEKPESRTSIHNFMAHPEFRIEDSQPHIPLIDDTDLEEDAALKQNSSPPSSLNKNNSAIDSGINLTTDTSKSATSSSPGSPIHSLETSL

How the values were obtained:
Experiment in all cases: log2 fold change, soluble protein after heating vs DMSO (PISA); higher = thermal stabilisation; K562 cells, 10 uM, 30 min; active = over 0.2 and 3.5 SD of the protein, either way, in both replicates (recomputed)
saracatinib = compound: CN1CCN(CCOc2cc(OC3CCOCC3)c3c(Nc4c(Cl)ccc5c4OCO5)ncnc3c2)CC1 [saracatinib]
Procedure, shortened: (§1)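 K562 cells (2×10^6 cells/mL) were treated with 10 μM compound for 30 min, and aliquots were heated for 3 min over 48°C-58°C. Pooled aliquots were extracted in PBS with 0.5% NP-40 at 4°C, and the supernatant after 21,000xg for 90 min was measured by TMTpro 16plex LC-MS/MS with channel sums equalised. Reported thermal stability, relative to control samples and from duplicates, is a log2 fold change.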

sotrastaurin = compound: CN1CCN(c2nc(C3=C(c4c[nH]c5ccccc45)C(=O)NC3=O)c3ccccc3n2)CC1 [sotrastaurin]
Procedure, shortened: as §1

alvocidib = compound: CN1CC[C@H](c2c(O)cc(O)c3c(=O)cc(-c4ccccc4Cl)oc23)[C@H](O)C1 [alvocidib]
Procedure, shortened: as §1

Tubastatin A = compound: CN1CCc2c(c3ccccc3n2Cc2ccc(C(=O)NO)cc2)C1 [Tubastatin A]
Procedure, shortened: as §1

[1] = compound: CNC(=O)C1=CC=CC=C1NC2=NC(=NC=C2Cl)NC3=C(C=C(C=C3)N4CCOCC4)OC
Procedure, shortened: as §1

defactinib = compound: CNC(=O)c1ccc(Nc2ncc(C(F)(F)F)c(NCc3nccnc3N(C)S(C)(=O)=O)n2)cc1 [defactinib]
Procedure, shortened: as §1

rucaparib = compound: CNCc1ccc(-c2[nH]c3cc(F)cc4c3c2CCNC4=O)cc1 [rucaparib]
Procedure, shortened: as §1

[2] = compound: CNc1nc(-c2ccc3c(N)n[nH]c3c2)cc(N2C[C@@H](C(=O)NC3CCCCC3)CC[C@H]2C)n1
Procedure, shortened: as §1

encorafenib = compound: COC(=O)N[C@@H](C)CNc1nccc(-c2cn(C(C)C)nc2-c2cc(Cl)cc(NS(C)(=O)=O)c2F)n1 [encorafenib]
Procedure, shortened: as §1

[3] = compound: COC(=O)[C@H](CCSC)NC(=O)C1=C(C=C(C=C1)NC[C@H](CS)N)C2=CC=CC=C2
Procedure, shortened: as §1

Measured: log2 fold change

ARNT (UniProt P27540)
inactive: saracatinib 0.102 | sotrastaurin -0.018 | alvocidib 0.04 | Tubastatin A 0.053 | [1] -0.022 | defactinib -0.007 | rucaparib 0.025 | [2] 0.101 | encorafenib -0.019 | [3] 0.221

ARPC3 (UniProt O15145)
inactive: saracatinib 0.05 | sotrastaurin -0.007 | alvocidib -0.023 | Tubastatin A 0.014 | [1] 0.043 | defactinib -0.04 | rucaparib 0.01 | [2] -0.037 | encorafenib -0.045 | [3] -0.004

ARPC4 isoform 3 (UniProt P59998)
inactive: saracatinib 0.044 | sotrastaurin 0.023 | alvocidib 0 | Tubastatin A 0 | [1] 0.003 | defactinib 0.021 | rucaparib -0.054 | [2] -0.122 | encorafenib 0 | [3] 0.03

ASCC1 isoform 2 (UniProt Q8N9N2)
inactive: saracatinib -0.074 | sotrastaurin -0.039 | alvocidib -0.044 | Tubastatin A 0.027 | [1] -0.04 | defactinib 0.002 | rucaparib 0.004 | [2] 0.025 | encorafenib 0.056 | [3] -0.029

ATP1B2 (UniProt P14415)
inactive: saracatinib -0.083 | sotrastaurin -0.003 | alvocidib 0.121 | Tubastatin A -0.018 | [1] -0.114 | defactinib -0.104 | rucaparib -0.012 | [2] -0.066 | encorafenib -0.022 | [3] 0.006

ATP13A1 (UniProt Q9HD20)
inactive: saracatinib 0.032 | sotrastaurin 0.005 | alvocidib -0.042 | Tubastatin A -0.021 | [1] -0.01 | defactinib -0.02 | rucaparib -0.034 | [2] -0.003 | encorafenib 0.023 | [3] -0.012

ATP5PD (UniProt O75947)
inactive: saracatinib 0.053 | sotrastaurin 0.049 | alvocidib -0.001 | Tubastatin A -0.003 | [1] 0.004 | defactinib 0.009 | rucaparib 0.001 | [2] 0.011 | encorafenib -0.023 | [3] 0.016

ARL8A (UniProt Q96BM9)
inactive: saracatinib -0.002 | sotrastaurin -0.105 | alvocidib -0.01 | Tubastatin A 0.117 | [1] -0.043 | defactinib 0.004 | rucaparib 0.045 | [2] -0.007 | encorafenib -0.071 | [3] 0.007

ATP2B1 isoform 1 (UniProt P20020)
inactive: saracatinib 0.019 | sotrastaurin 0.036 | alvocidib 0.006 | Tubastatin A -0.018 | [1] -0.033 | defactinib -0.049 | rucaparib -0.041 | [2] 0.023 | encorafenib 0.001 | [3] 0.018

ATP5F1C (UniProt P36542)
inactive: saracatinib 0 | sotrastaurin 0.049 | alvocidib 0.019 | Tubastatin A -0.021 | [1] 0.013 | defactinib 0.03 | rucaparib -0.01 | [2] -0.05 | encorafenib -0.037 | [3] 0.022

ATP7A isoform 3 (UniProt Q04656)
inactive: saracatinib 0.001 | sotrastaurin -0.009 | alvocidib -0.036 | Tubastatin A -0.025 | [1] 0.039 | defactinib -0.024 | rucaparib -0.026 | [2] 0.035 | encorafenib 0.045 | [3] 0.014

ARL6IP1 (UniProt Q15041)
inactive: saracatinib 0.004 | sotrastaurin -0.124 | alvocidib -0.05 | Tubastatin A -0.123 | [1] 0 | defactinib 0.031 | rucaparib -0.072 | [2] -0.071 | encorafenib -0.048 | [3] 0.174

ASRGL1 (UniProt Q7L266)
inactive: saracatinib 0.093 | sotrastaurin 0.048 | alvocidib -0.007 | Tubastatin A 0.019 | [1] 0.047 | defactinib -0.099 | rucaparib 0.025 | [2] -0.046 | encorafenib -0.045 | [3] 0.046

ATP11B (UniProt Q9Y2G3)
inactive: saracatinib 0.031 | sotrastaurin 0.031 | alvocidib 0.025 | Tubastatin A -0.011 | [1] 0.006 | defactinib 0.011 | rucaparib -0.02 | [2] -0.014 | encorafenib -0.014 | [3] 0.012

ARSB (UniProt P15848)
inactive: saracatinib -0.077 | sotrastaurin 0.011 | alvocidib 0.015 | Tubastatin A 0.039 | [1] 0.026 | defactinib -0.038 | rucaparib -0.128 | [2] -0.05 | encorafenib -0.022 | [3] -0.028

ATP6V1G1 (UniProt O75348)
inactive: saracatinib -0.087 | sotrastaurin 0.023 | alvocidib 0.002 | Tubastatin A -0.026 | [1] 0.004 | defactinib 0.034 | rucaparib 0.038 | [2] 0.006 | encorafenib -0.013 | [3] 0.049

ATG3 (UniProt Q9NT62)
inactive: saracatinib 0.022 | sotrastaurin 0.037 | alvocidib -0.011 | Tubastatin A -0.01 | [1] -0.005 | defactinib -0.01 | rucaparib -0.062 | [2] 0.007 | encorafenib 0.011 | [3] 0.004

ATP5MPL (UniProt P56378)
inactive: saracatinib 0.08 | sotrastaurin -0.117 | alvocidib -0.099 | Tubastatin A -0.052 | [1] 0.02 | defactinib -0.068 | rucaparib -0.04 | [2] -0.073 | encorafenib -0.002 | [3] 0.049

ARPC1A (UniProt Q92747)
inactive: saracatinib 0.085 | sotrastaurin -0.017 | alvocidib 0.039 | Tubastatin A -0.139 | [1] 0.064 | defactinib -0.004 | rucaparib -0.037 | [2] -0.087 | encorafenib -0.024 | [3] -0.088

ARL6IP5 (UniProt O75915)
inactive: saracatinib 0.001 | sotrastaurin 0.02 | alvocidib 0.04 | Tubastatin A -0.02 | [1] -0.009 | defactinib -0.019 | rucaparib -0.001 | [2] -0.021 | encorafenib 0.05 | [3] 0.013

ARL2 (UniProt P36404)
inactive: saracatinib 0.065 | sotrastaurin 0.02 | alvocidib -0.013 | Tubastatin A 0.031 | [1] -0.034 | defactinib -0.031 | rucaparib -0.033 | [2] -0.008 | encorafenib 0.006 | [3] -0.039

ARV1 (UniProt Q9H2C2)
inactive: saracatinib 0.074 | sotrastaurin 0.024 | alvocidib 0.009 | Tubastatin A -0.021 | [1] 0.032 | defactinib -0.026 | rucaparib -0.044 | [2] -0.062 | encorafenib 0.106 | [3] -0.032

ATP12A isoform 2 (UniProt P54707)
inactive: saracatinib 0.011 | sotrastaurin 0.031 | Tubastatin A -0.019 | [1] 0.002 | defactinib -0.072 | rucaparib -0.027 | [2] 0.023 | encorafenib -0.015 | [3] -0.005

ATP6V0A2 (UniProt Q9Y487)
inactive: saracatinib -0.009 | sotrastaurin -0.07 | Tubastatin A 0.061 | [1] -0.003 | defactinib 0.019 | rucaparib -0.003 | [2] -0.021 | encorafenib 0.043 | [3] -0.039

ARL6IP4 (UniProt Q66PJ3)
inactive: saracatinib -0.026 | sotrastaurin 0.023 | Tubastatin A -0.024 | [1] -0.05 | defactinib -0.038 | rucaparib 0.01 | [2] -0.002 | encorafenib -0.059 | [3] 0.016

ASPSCR1 isoform 2 (UniProt Q9BZE9)
inactive: saracatinib -0.031 | sotrastaurin -0.033 | alvocidib 0.045 | Tubastatin A 0.023 | [1] 0.03 | defactinib -0.059 | rucaparib 0.002 | [2] 0.011 | encorafenib 0.107 | [3] -0.004

ATP9B (UniProt O43861)
inactive: saracatinib 0.13 | sotrastaurin -0.185 | Tubastatin A -0.055 | [1] -0.02 | defactinib -0.025 | rucaparib 0.081 | [2] -0.027 | encorafenib 0.058 | [3] 0.06

Six successive records from above, quoted:
ARL2 (UniProt P36404)
inactive: saracatinib 0.065 | sotrastaurin 0.02 | alvocidib -0.013 | Tubastatin A 0.031 | [1] -0.034 | defactinib -0.031 | rucaparib -0.033 | [2] -0.008 | encorafenib 0.006 | [3] -0.039

ARV1 (UniProt Q9H2C2)
inactive: saracatinib 0.074 | sotrastaurin 0.024 | alvocidib 0.009 | Tubastatin A -0.021 | [1] 0.032 | defactinib -0.026 | rucaparib -0.044 | [2] -0.062 | encorafenib 0.106 | [3] -0.032

ATP12A isoform 2 (UniProt P54707)
inactive: saracatinib 0.011 | sotrastaurin 0.031 | Tubastatin A -0.019 | [1] 0.002 | defactinib -0.072 | rucaparib -0.027 | [2] 0.023 | encorafenib -0.015 | [3] -0.005

ATP6V0A2 (UniProt Q9Y487)
inactive: saracatinib -0.009 | sotrastaurin -0.07 | Tubastatin A 0.061 | [1] -0.003 | defactinib 0.019 | rucaparib -0.003 | [2] -0.021 | encorafenib 0.043 | [3] -0.039

ARL6IP4 (UniProt Q66PJ3)
inactive: saracatinib -0.026 | sotrastaurin 0.023 | Tubastatin A -0.024 | [1] -0.05 | defactinib -0.038 | rucaparib 0.01 | [2] -0.002 | encorafenib -0.059 | [3] 0.016

ASPSCR1 isoform 2 (UniProt Q9BZE9)
inactive: saracatinib -0.031 | sotrastaurin -0.033 | alvocidib 0.045 | Tubastatin A 0.023 | [1] 0.03 | defactinib -0.059 | rucaparib 0.002 | [2] 0.011 | encorafenib 0.107 | [3] -0.004

(cont.)

ATAD3B (UniProt Q5T9A4)
inactive: saracatinib -0.047 | sotrastaurin -0.101 | Tubastatin A -0.009 | [1] -0.084 | defactinib 0.096 | rucaparib 0.25 | [2] 0 | encorafenib 0.125 | [3] 0.033

ATP2B2 (UniProt Q01814)
inactive: saracatinib -0.008 | sotrastaurin 0.117 | alvocidib -0.218 | [1] 0.043 | defactinib 0.047 | [2] 0.279 | [3] -0.164

ATAD3A isoform 2 (UniProt Q9NVI7)
inactive: saracatinib 0.001 | sotrastaurin -0.053 | Tubastatin A 0.04 | [1] -0.139 | defactinib 0.05 | rucaparib 0.252 | [2] -0.017 | encorafenib 0.154 | [3] -0.046
